{"source": "PubChem BioAssay AID504793, Drosophila RNAi Screening Center, 2011", "screen": "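Whole-genome screen for parts of the DNA damage checkpoint at G2/M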 (primary screen)", "system": "Drosophila S2R+ cells", "knock-down reagent": "long dsRNA against Drosophila genes, about 0.25 µg dsRNA per well", "duration": "4 days of dsRNA, then 4 hours of drug before read-out", "challenge": "doxorubicin 0.5 µM for 4 hours to cause double-strand breaks, in cells also given a low, harmless dose of dsRNA against nbs to sensitise the assay", "read-out": "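Per-well count of mitotic cells stained for phospho-histone H3 after doxorubicin exposure, used as mitotic index; counts are raw and not normalised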", "scale": "mitotic cells: higher = more cells in mitosis, weaker G2 arrest", "hit rule": "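Genes are called active only when high mitotic counts were reproduced with independent dsRNAs and mitosis was checked for delay without damage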", "meaning of the calls": "active = confirmed in follow-up tests; inactive = not confirmed", "note": "The deposit covers about 23,000 reagents; below is a random part of those with a known target gene and a result. Over the whole deposit, 62 (0.27%) got an active call. 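Calls come from follow-up tests whose scores are not deposited, so confirmed genes may have low counts here; counts are not normalised per plate.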 The raw values are shown without normalisation. The numbers tell different reagents against one gene apart."}
{"predicted target": "CG3907", "reagent no.": 1, "mitotic cells, replicate 1": 12, "activity call": "inactive"}
{"predicted target": "CG7333", "reagent no.": 1, "mitotic cells, replicate 1": 7, "activity call": "inactive"}
{"predicted target": "mgl (Megalin)", "reagent no.": 1, "mitotic cells, replicate 1": 7, "activity call": "inactive"}
{"predicted target": "mgl (Megalin)", "reagent no.": 2, "mitotic cells, replicate 1": 6, "activity call": "inactive"}
{"predicted target": "mgl (Megalin)", "reagent no.": 3, "mitotic cells, replicate 1": 17, "activity call": "inactive"}
{"predicted target": "mgl (Megalin)", "reagent no.": 4, "mitotic cells, replicate 1": 2, "activity call": "inactive"}
{"predicted target": "Spn31A (Serpin 31A)", "reagent no.": 1, "mitotic cells, replicate 1": 2, "activity call": "inactive"}
{"predicted target": "Spn31A (Serpin 31A)", "reagent no.": 2, "mitotic cells, replicate 1": 8, "activity call": "inactive"}
{"predicted target": "CG13287", "reagent no.": 1, "mitotic cells, replicate 1": 5, "activity call": "inactive"}
{"predicted target": "CG13287", "reagent no.": 2, "mitotic cells, replicate 1": 5, "activity call": "inactive"}
{"predicted target": "CG13933", "reagent no.": 1, "mitotic cells, replicate 1": 10, "activity call": "inactive"}
{"predicted target": "beta-Spec (beta Spectrin)", "reagent no.": 1, "mitotic cells, replicate 1": 6, "activity call": "inactive"}
{"predicted target": "Bap60 (Brahma associated protein 60kD)", "reagent no.": 1, "mitotic cells, replicate 1": 12, "activity call": "inactive"}
{"predicted target": "spas (spastin)", "reagent no.": 1, "mitotic cells, replicate 1": 6, "activity call": "inactive"}
{"predicted target": "Grl36b (Gustatory receptor-like 36b)", "reagent no.": 1, "mitotic cells, replicate 1": 6, "activity call": "inactive"}
{"predicted target": "pch2 (pachytene checkpoint 2)", "reagent no.": 1, "mitotic cells, replicate 1": 2, "activity call": "inactive"}
{"predicted target": "CG13049", "reagent no.": 1, "mitotic cells, replicate 1": 5, "activity call": "inactive"}
{"predicted target": "CG13049", "reagent no.": 2, "mitotic cells, replicate 1": 3, "activity call": "inactive"}
{"predicted target": "CG15414", "reagent no.": 1, "mitotic cells, replicate 1": 3, "activity call": "inactive"}
{"predicted target": "CG15414", "reagent no.": 2, "mitotic cells, replicate 1": 4, "activity call": "inactive"}
{"predicted target": "CG15414", "reagent no.": 3, "mitotic cells, replicate 1": 10, "activity call": "inactive"}
{"predicted target": "CG31638", "reagent no.": 1, "mitotic cells, replicate 1": 7, "activity call": "inactive"}
{"predicted target": "CG31638", "reagent no.": 2, "mitotic cells, replicate 1": 1, "activity call": "inactive"}
{"predicted target": "CG31638", "reagent no.": 3, "mitotic cells, replicate 1": 5, "activity call": "inactive"}
{"predicted target": "mars", "reagent no.": 1, "mitotic cells, replicate 1": 38, "mitotic cells, replicate 2": 14, "activity call": "inactive"}
{"predicted target": "Jon65Aiii (Jonah 65Aiii)", "reagent no.": 1, "mitotic cells, replicate 1": 9, "activity call": "inactive"}
{"predicted target": "Jon65Aiii (Jonah 65Aiii)", "reagent no.": 2, "mitotic cells, replicate 1": 11, "activity call": "inactive"}
{"predicted target": "ovo", "reagent no.": 1, "mitotic cells, replicate 1": 9, "activity call": "inactive"}
{"predicted target": "ovo", "reagent no.": 2, "mitotic cells, replicate 1": 4, "activity call": "inactive"}
{"predicted target": "amon (amontillado)", "reagent no.": 1, "mitotic cells, replicate 1": 16, "activity call": "inactive"}
{"predicted target": "amon (amontillado)", "reagent no.": 2, "mitotic cells, replicate 1": 17, "mitotic cells, replicate 2": 10, "activity call": "inactive"}
{"predicted target": "spn-A (spindle A)", "reagent no.": 1, "mitotic cells, replicate 1": 11, "activity call": "inactive"}
{"predicted target": "ph-d (polyhomeotic distal)", "reagent no.": 1, "mitotic cells, replicate 1": 14, "activity call": "inactive"}
{"predicted target": "ph-d (polyhomeotic distal)", "reagent no.": 2, "mitotic cells, replicate 1": 6, "activity call": "inactive"}

4 entries from above, limited to “mitotic cells, replicate 1”:
ovo #1: 9
ovo #2: 4
amon (amontillado) #1: 16
amon (amontillado) #2: 17
